From PubChem BioAssay AID256 (DTP/NCI, 2004)
The list shows only some results of the screen, not a fair sample: it covers a few groups of compounds. Not every dose and run of a compound is shown. T/C is the treated group as % of the vehicle group. Some entries give survivors of the animals treated and no T/C: the source files T/C as zero there, which appears to mark a toxic dose or a test without result, not a measured value. Some doses without a T/C left all or most animals alive at the check, yet need not have been tolerated: survival well below the control is almost never listed, so the zero probably covers shortened survival too. Survivors were counted at the toxicity check, usually on the fifth day, unless a day is given; later deaths do not show. Schedules are NCI's codes, read here as Q, the interval in days (D) or hours (H), X, the number of doses. Some entries were tested several times; the results are listed from low to high. Where survival is the endpoint, the PubChem record calls one and a half times the control and up active, and a quarter to a half above the control has no call in these data; cut-offs in other NCI protocols can differ. Some T/C values are followed by the survivors on the day toxicity was checked, most often the fifth; without a count or a note in brackets, all were alive then. Additions like (4×) say how often a value occurs here. Some T/C values are marked as having no survivor count here; that says nothing about deaths at the dose.

Test system: CD2F1 mice, L1210 leukemia ip, survival T/C
Experiment: NCI In Vivo Anticancer Drug Screen. Data for tumor model L1210 Leukemia (intraperitoneal) in CD2F1 (CDF1) mice
Settings: higher T/C = longer survival
Protocol: The antitumor activity of compounds was measured in mice bearing transplantable tumors. Survival or tumor size were measured and the results are expressed as the measurement made in the treated group (T) divided by the measurement made in the vehicle treated control group (C). The tumor model used in this assay is L1210 Leukemia (intraperitoneal) in CD2F1 (CDF1) mice

[1] = T/C endpoint: mean survival time, dose: 50.0 mg/kg/injection, schedule: Q01DX009 (ip), vehicle: Klucel (hydroxypropylcellulose) (HPC)
[2] = T/C endpoint: mean survival time, dose: 100.0 mg/kg/injection, schedule: Q01DX009 (ip), vehicle: Klucel (hydroxypropylcellulose) (HPC)

Question: With `C=CCCOP(N)(=O)N(CCCl)CCCl` (stereo not given) as the compound, how does the T/C (T/C endpoint: mean survival time, dose: 15.63 mg/kg/injection, schedule: Q01DX001 (ip), vehicle: DMSO) read?
Answer: Its T/C is 104 % of control.

Question: What about the T/C (T/C endpoint: mean survival time, dose: 31.25 mg/kg/injection, schedule: Q01DX001 (ip), vehicle: DMSO) of the same compound?
Answer: The T/C was 95 % of control.

Question: What about the T/C (T/C endpoint: mean survival time, dose: 62.5 mg/kg/injection, schedule: Q01DX001 (ip), vehicle: DMSO) of the same compound?
Answer: Its T/C is 98 % of control.

Question: What about the T/C (T/C endpoint: mean survival time, dose: 125.0 mg/kg/injection, schedule: Q01DX001 (ip), vehicle: DMSO) of the same compound?
Answer: The T/C was 101 % of control.

Question: What about the T/C (T/C endpoint: mean survival time, dose: 250.0 mg/kg/injection, schedule: Q01DX001 (ip), vehicle: DMSO) of the same compound?
Answer: Its T/C is 97 % of control.

Question: And the T/C (T/C endpoint: mean survival time, dose: 500.0 mg/kg/injection, schedule: Q01DX001 (ip), vehicle: DMSO)?
Answer: Its T/C is 103 % of control [5 of 6 alive].

Question: And the survivor count (T/C endpoint: mean survival time, dose: 1000.0 mg/kg/injection, schedule: Q01DX001 (ip), vehicle: DMSO)?
Answer: Its survivor count is 0 of 6.

Question: Which T/C (T/C endpoint: median survival time, dose: 0.25 mg/kg/injection, schedule: Q01DX009 (ip), vehicle: saline) does the source give for `NCCN(CCCl)CCCl` here?
Answer: Its T/C is 148 % of control.

Question: And the T/C (T/C endpoint: median survival time, dose: 0.5 mg/kg/injection, schedule: Q01DX005 (ip), vehicle: saline)?
Answer: The T/C was 143 and 172 % of control.

Question: And the T/C (T/C endpoint: median survival time, dose: 0.5 mg/kg/injection, schedule: Q01DX009 (ip), vehicle: saline)?
Answer: Its T/C is 197 % of control.

Question: What about the T/C (T/C endpoint: median survival time, dose: 1.0 mg/kg/injection, schedule: Q01DX005 (ip), vehicle: saline) of the same compound?
Answer: The T/C was 141 and 158 % of control.

Question: What about the T/C (T/C endpoint: median survival time, dose: 1.0 mg/kg/injection, schedule: Q01DX009 (ip), vehicle: saline) of the same compound?
Answer: The T/C was 197 % of control.

Question: And the T/C (T/C endpoint: median survival time, dose: 2.0 mg/kg/injection, schedule: Q01DX005 (ip), vehicle: saline)?
Answer: The T/C was 168 and 197 % of control.

Question: And the T/C (T/C endpoint: median survival time, dose: 2.0 mg/kg/injection, schedule: Q01DX009 (ip), vehicle: saline)?
Answer: Its T/C is 234 % of control.

Question: What about the T/C (T/C endpoint: median survival time, dose: 4.0 mg/kg/injection, schedule: Q01DX005 (ip), vehicle: saline) of the same compound?
Answer: Its T/C is 90 and 127 % of control.

Question: What about the T/C (T/C endpoint: median survival time, dose: 4.0 mg/kg/injection, schedule: Q01DX009 (ip), vehicle: saline) of the same compound?
Answer: Its T/C is 97 % of control.

Question: For `ClCCN(CCCl)c1ccccc1`, which T/C (T/C endpoint: mean survival time, dose: 1.56 mg/kg/injection, schedule: Q01DX009 (ip), vehicle: Klucel (hydroxypropylcellulose) (HPC)) is on record?
Answer: The T/C was 101 % of control.

Question: What about the T/C (T/C endpoint: mean survival time, dose: 3.12 mg/kg/injection, schedule: Q01DX009 (ip), vehicle: Klucel (hydroxypropylcellulose) (HPC), evaluated on day 30) of the same compound?
Answer: The T/C was 102, 108 (2×), 111 % of control [5 of 6 alive].

Question: What about the T/C (T/C endpoint: mean survival time, dose: 3.12 mg/kg/injection, schedule: Q01DX009 (ip), vehicle: Klucel (hydroxypropylcellulose) (HPC), evaluation day not shown) of the same compound?
Answer: Its T/C is 102 % of control [survivor count not shown] (2×).

Question: And the T/C (T/C endpoint: mean survival time, dose: 3.13 mg/kg/injection, schedule: Q01DX009 (ip), vehicle: Klucel (hydroxypropylcellulose) (HPC))?
Answer: The T/C was 108 % of control [survivor count not shown].

Question: And the T/C (T/C endpoint: mean survival time, dose: 6.0 mg/kg/injection, schedule: Q01DX009 (ip), vehicle: saline with Tween-80)?
Answer: Its T/C is 106 % of control [survivor count not shown].

Question: What about the T/C (T/C endpoint: mean survival time, dose: 6.25 mg/kg/injection, schedule: Q01DX009 (ip), vehicle: Klucel (hydroxypropylcellulose) (HPC), evaluated on day 30) of the same compound?
Answer: Its T/C is 100, 104, 114, 118 % of control.

Question: What about the T/C (T/C endpoint: mean survival time, dose: 6.25 mg/kg/injection, schedule: Q01DX009 (ip), vehicle: Klucel (hydroxypropylcellulose) (HPC), evaluation day not shown) of the same compound?
Answer: The T/C was 103 [survivor count not shown], 106 [survivor count not shown], 107 % of control [survivor count not shown].

Question: What about the T/C (T/C endpoint: mean survival time, dose: 12.0 mg/kg/injection, schedule: Q01DX009 (ip), vehicle: saline with Tween-80) of the same compound?
Answer: The T/C was 106 % of control [survivor count not shown].

Question: What about the T/C (T/C endpoint: mean survival time, dose: 12.5 mg/kg/injection, schedule: Q01DX009 (ip), vehicle: Klucel (hydroxypropylcellulose) (HPC), evaluated on day 30) of the same compound?
Answer: The T/C was 111, 117, 118, 119 % of control.

Question: And the T/C (T/C endpoint: mean survival time, dose: 12.5 mg/kg/injection, schedule: Q01DX009 (ip), vehicle: Klucel (hydroxypropylcellulose) (HPC), evaluation day not shown)?
Answer: The T/C was 103 [survivor count not shown] and 110 % of control [survivor count not shown] (2×).

Question: What about the T/C (T/C endpoint: mean survival time, dose: 24.0 mg/kg/injection, schedule: Q01DX009 (ip), vehicle: saline with Tween-80) of the same compound?
Answer: The T/C was 128 % of control [survivor count not shown].

Question: What about the T/C (T/C endpoint: mean survival time, dose: 25.0 mg/kg/injection, schedule: Q01DX009 (ip), vehicle: Klucel (hydroxypropylcellulose) (HPC), evaluated on day 30) of the same compound?
Answer: Its T/C is 112, 113, 117, 140 % of control.

Question: What about the T/C (T/C endpoint: mean survival time, dose: 25.0 mg/kg/injection, schedule: Q01DX009 (ip), vehicle: Klucel (hydroxypropylcellulose) (HPC), evaluation day not shown) of the same compound?
Answer: The T/C was 111 [survivor count not shown], 114 [survivor count not shown], 128 % of control [survivor count not shown].

Question: What about the T/C (T/C endpoint: mean survival time, dose: 48.0 mg/kg/injection, schedule: Q01DX009 (ip), vehicle: saline with Tween-80) of the same compound?
Answer: Its T/C is 110 % of control [survivor count not shown].

Question: What about the T/C (T/C endpoint: mean survival time, dose: 50.0 mg/kg/injection, schedule: Q01DX009 (ip), vehicle: Klucel (hydroxypropylcellulose) (HPC), evaluated on day 30) of the same compound?
Answer: Its T/C is 90 (2×) and 113 % of control.

Question: And the T/C (T/C endpoint: mean survival time, dose: 50.0 mg/kg/injection, schedule: Q01DX009 (ip), vehicle: Klucel (hydroxypropylcellulose) (HPC), evaluation day not shown)?
Answer: Its T/C is 101 [survivor count not shown] and 116 % of control [survivor count not shown].

Question: What about the survivor count [1] of the same compound?
Answer: Its survivor count is 5 of 6.

Question: And the T/C [2]?
Answer: Its T/C is 160 % of control.

Question: And the survivor count [2]?
Answer: The survivor count was 0 of 6 and 3 of 6.

Question: What does the source list for `NS(=O)(=O)c1ccc(N(CCCl)CCCl)cc1`?
Answer: T/C (T/C endpoint: mean survival time, dose: 3.12 mg/kg/injection, schedule: Q01DX009 (ip), vehicle: Klucel (hydroxypropylcellulose) (HPC)): 97 % of control [survivor count not shown]; T/C (T/C endpoint: mean survival time, dose: 6.25 mg/kg/injection, schedule: Q01DX009 (ip), vehicle: Klucel (hydroxypropylcellulose) (HPC)): 100 % of control [survivor count not shown] (2×); T/C (T/C endpoint: mean survival time, dose: 12.5 mg/kg/injection, schedule: Q01DX009 (ip), vehicle: Klucel (hydroxypropylcellulose) (HPC)): 101 [survivor count not shown] and 102 % of control [survivor count not shown]; T/C (T/C endpoint: mean survival time, dose: 25.0 mg/kg/injection, schedule: Q01DX009 (ip), vehicle: Klucel (hydroxypropylcellulose) (HPC)): 95 [survivor count not shown] and 100 % of control [survivor count not shown] (2×); T/C [1]: 97 [survivor count not shown] (2×) and 108 % of control [survivor count not shown]; T/C [2]: 94 [survivor count not shown], 97 [survivor count not shown], 100 % of control [survivor count not shown]; T/C (T/C endpoint: mean survival time, dose: 200.0 mg/kg/injection, schedule: Q01DX009 (ip), vehicle: Klucel (hydroxypropylcellulose) (HPC)): 94 [survivor count not shown], 95 [survivor count not shown], 112 % of control [survivor count not shown]

Question: For `CCC1(N(CCCl)CCCl)C(=O)NC(=O)NC1=O`, which T/C (T/C endpoint: mean survival time, dose: 25.0 mg/kg/injection, schedule: Q01DX009 (ip), vehicle: saline) is on record?
Answer: The T/C was 98 % of control [survivor count not shown].

Question: What about the T/C (T/C endpoint: mean survival time, dose: 25.0 mg/kg/injection, schedule: Q04DX002 (ip), vehicle: saline) of the same compound?
Answer: Its T/C is 101 % of control [survivor count not shown].

Question: What about the T/C (T/C endpoint: mean survival time, dose: 50.0 mg/kg/injection, schedule: Q01DX009 (ip), vehicle: saline) of the same compound?
Answer: The T/C was 112 % of control [survivor count not shown].

Question: And the T/C (T/C endpoint: mean survival time, dose: 50.0 mg/kg/injection, schedule: Q04DX002 (ip), vehicle: saline)?
Answer: Its T/C is 98 % of control [survivor count not shown].

Question: And the T/C (T/C endpoint: mean survival time, dose: 100.0 mg/kg/injection, schedule: Q01DX009 (ip), vehicle: saline)?
Answer: The T/C was 121 % of control [survivor count not shown].

Question: What about the T/C (T/C endpoint: mean survival time, dose: 100.0 mg/kg/injection, schedule: Q04DX002 (ip), vehicle: saline) of the same compound?
Answer: Its T/C is 110 % of control [survivor count not shown].

Question: What does the source list for `CC1CCC(N(CCCl)CCCl)CC1` (stereo not given)?
Answer: T/C (T/C endpoint: mean survival time, dose: 1.3 mg/kg/injection, schedule: Q01DX001 (ip), vehicle: saline): 101 % of control [survivor count not shown]; T/C (T/C endpoint: mean survival time, dose: 2.0 mg/kg/injection, schedule: Q01DX001 (ip), vehicle: saline): 106 % of control [survivor count not shown]; T/C (T/C endpoint: mean survival time, dose: 3.0 mg/kg/injection, schedule: Q01DX001 (ip), vehicle: saline): 105 % of control [survivor count not shown]; T/C (T/C endpoint: mean survival time, dose: 4.4 mg/kg/injection, schedule: Q01DX001 (ip), vehicle: saline): 110 % of control [survivor count not shown]; T/C (T/C endpoint: mean survival time, dose: 6.7 mg/kg/injection, schedule: Q01DX001 (ip), vehicle: saline): 116 % of control [survivor count not shown]; T/C (T/C endpoint: mean survival time, dose: 10.0 mg/kg/injection, schedule: Q01DX001 (ip), vehicle: saline): 115 % of control [survivor count not shown]; T/C (T/C endpoint: mean survival time, dose: 15.0 mg/kg/injection, schedule: Q01DX001 (ip), vehicle: saline): 96 % of control [survivor count not shown]
